Laboratory results as given in PubChem BioAssay AID504467 (National Center for Advancing Translational Sciences (NCATS), 2011).
In all, about 330,000 compounds went through this assay and about 7,700 (2.3%) were called active. Inconclusive results, whose numbers are uncertain, are shown with a selection of clear calls. The call rests on the fitted dose curve; in most records, active means well fitted inhibition curve with a large enough effect; inconclusive means small, poorly fitted or top-dose-only effect, or effect the other way; inactive means flat fitted curve, though single readings scatter. A potency beside an inconclusive call is a rough fit, not a confirmed value.
Potency means the concentration at half of the fitted maximal effect.

Experiment: qHTS screen for small molecules that inhibit ELG1-dependent DNA repair in human embryonic kidney (HEK293T) cells expressing luciferase-tagged ELG1; further: nearly all actives have a fitted effect of over 55% in size
Conditions: HEK293T ELG1-luciferase reporter, luminescence, 16 h, DNA damage induced by 5-fluorouridine; series mostly up to 46.1 µM
In short: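 DMSO vehicle served as the neutral condition. Each well held 2,000 cells given 5-fluorouridine plus compound; after 16 hr at 37 °C/5% CO2, ONE-Glo was added and luciferase measured 30 min later.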
In the case of CCOC(=O)C1=C(C)C/C(=N\NC(=O)c2ccccc2O)CC1, the Potency is reported as inconclusive: 16.4 µM [activator, partial curve]. In the case of CCCCOC(=O)c1sc2nc(C)cc(C)c2c1N, the Potency is reported as inconclusive: 9.2 µM [activator, partial curve]. With CC(C)(C)OC(=O)C[C@@H]1C/C=C\C[C@@H](CC(=O)N(CCO)Cc2ccccc2)C(=O)NC[C@H](c2ccccc2)OC1=O the Potency was active: 1.46 µM. For O=C(CN1C(=O)NC2(CCCC2)C1=O)Nc1ccc(F)cc1, the Potency was inconclusive: 20.6 µM [activator, single point]. In the case of CC1CN(CC(O)COC2CCC(C(C)(C)C)CC2)CC(C)O1 (centres undefined), the Potency is reported as “inactive”. In the case of COC(=O)c1ccccc1Sc1snnc1C, the Potency is reported as inconclusive: 18.3 µM [activator, single point]. For Cc1cnc(C(=O)Nc2ccc(N3CCCCC3)cc2)cn1, the Potency was inconclusive: 4.11 µM [activator, full curve]. For N#C/C(=C\c1c[nH]c2ccccc12)C(=O)NC1CC1, the Potency was inconclusive: 5.17 µM [activator, partial curve]. With CC(=O)Nc1ccc(Nc2nnc(-c3ccc(C)c(S(N)(=O)=O)c3)c3ccccc23)cc1 the Potency was “inactive”. For Oc1[nH]c2ccccc2c1C=Nc1ccc2c(c1)OCO2, the Potency was inconclusive: 2.59 µM [activator, partial curve]. In the case of CCOc1ccc(CCNC(=O)COC(=O)c2ccc(OC)c(OC)c2OC)cc1OCC, the Potency is reported as active: 9.2 µM. In the case of CC1CN(C(=O)c2ccc(Oc3ccccc3)cc2)CC(C)O1 (centres undefined), the Potency is reported as inconclusive: 23.1 µM [inhibitor, partial curve, poor fit]. In the case of COc1ccc(C)c(-n2c(N)cc(=O)n(Cc3ccccc3)c2=O)c1, the Potency is reported as “inactive”. In the case of CCOC(=O)c1c(S(=O)(=O)NCC(=O)N2CCN(c3cccc(OC)c3)CC2)c(C)n(C)c1C, the Potency is reported as “inactive”. For O=C(Nc1ccc(C(=O)N2CCC(O)(c3ccc(Cl)c(C(F)(F)F)c3)CC2)cc1)c1ccc(Br)o1, the Potency was inconclusive: 15.8 µM [inhibitor, single point]. In the case of O=C(CSc1nc(-c2ccc(F)cc2)nc2c1Cc1ccccc1O2)Nc1ccc(C(=O)O)cc1, the Potency is reported as “inactive”. For O=[N+]([O-])c1cccc(CSc2ncnc3ccccc23)c1, the Potency was inconclusive: 29.1 µM [inhibitor, single point]. In the case of CSc1ccc(C2N=C(c3ccccc3)NO2)cc1 (centres undefined), the Potency is reported as inconclusive: 5.17 µM [activator, partial curve]. In the case of O=C(Cc1ccc(S(=O)(=O)N2CCOCC2)s1)Nc1ccc(N2CCOCC2)cc1, the Potency is reported as inconclusive: 23.1 µM [activator, partial curve]. In the case of Brc1ccc(-c2nc3ncccn3c2NC2CCCCC2)o1, the Potency is reported as inconclusive: 25.9 µM [inhibitor, partial curve, poor fit]. For COc1ccc(-n2c(SC(CN3CCCCC3)CN3CCCC3=O)nc3ccccc3c2=O)cc1 (centres undefined), the Potency was inconclusive: 29.1 µM [inhibitor, single point]. With Cc1c(C(=O)N2CCC(C(N)=O)CC2)sc(N)c1C#N the Potency was inconclusive: 5.8 µM [activator, single point]. For O=C(O)c1ccc2ncsc2c1, the Potency was inconclusive: 7.3 µM [activator, partial curve]. For O=C(CN1c2cccc3cccc(c23)S1(=O)=O)N1CCOCC1, the Potency was “inactive”. In the case of COc1ccc(CCNCc2ccc(OCC(=O)N3CCCCC3)c(OC)c2)cc1OC, the Potency is reported as “inactive”. In the case of CC(C)c1ccc(NC(=O)C2=CC=CN3CCS(=O)(=O)N=C23)cc1, the Potency is reported as inconclusive: 29.1 µM [activator, single point]. For O=C(CSc1nnc(CNC(=O)c2ccco2)o1)Nc1nc2ccccc2s1, the Potency was inconclusive: 13 µM [activator, partial curve, poor fit]. In the case of Cc1cccc2c(N=Nc3ccccc3)c(O)[nH]c12, the Potency is reported as inconclusive: 2.31 µM [activator, full curve]. With COc1ccc(CNC(=O)Nc2cc(C)cc(C)c2)cc1 the Potency was inconclusive: 29.1 µM [activator, single point]. With Cc1ccc(S(=O)(=O)N(C)c2ccc(OCC(=O)Nc3ccc(C(=O)N(C)C)cc3)cc2)cc1C the Potency was “inactive”. For Cn1ncc(Cl)c1C(=O)Nc1ccc(Cl)cn1, the Potency was inconclusive: 13 µM [activator, partial curve]. For COc1ccccc1-c1nnc(SCC(=O)Nc2ccc(N3CCOCC3)cc2)n1C, the Potency was inconclusive: 0.794 µM [activator, full curve, poor fit]. In the case of Cc1ccc(NC(=O)c2cncc(Br)c2)nc1, the Potency is reported as inconclusive: 8.2 µM [activator, partial curve]. In the case of Cc1ccc2nc(SCC(=O)NC3CC3)[nH]c2c1, the Potency is reported as inconclusive: 29.1 µM [activator, single point]. In the case of O=C(CCCNc1ccccc1)N/N=C/c1cccs1, the Potency is reported as “inactive”. With COc1cc(C(=O)N[C@H](C(=O)NC2CCCc3ccccc32)C(C)C)cc(OC)c1OC (some centres undefined) the Potency was active: 20.6 µM. In the case of CCn1c(=O)cc(OCC(=O)NCCCN2CC(C)CC(C)C2)c2ccccc21 (centres undefined), the Potency is reported as inconclusive: 16.4 µM [activator, partial curve]. With Cc1cc(C(=O)OCC(=O)NC2CCCCC2)c(C)o1 the Potency was inconclusive: 20.6 µM [activator, partial curve, poor fit]. For O=C(NCC(=O)N1CCCCCC1)c1ccc(Cl)cc1, the Potency was inconclusive: 16.4 µM [activator, single point]. For CCCN(CC(=O)Nc1ccccc1C)C(=O)CCl, the Potency was active: 7.3 µM. With O=C(CCC1N=C2c3ccccc3N=C(SCC(=O)NCc3ccco3)N2C1=O)NCc1ccco1 (centres undefined) the Potency was “inactive”. For O=C(COC(=O)c1cc(S(=O)(=O)N2CCCCC2)ccc1N1CCOCC1)NCCc1ccc(F)cc1, the Potency was inconclusive: 20.6 µM [inhibitor, single point]. With COC(=O)c1ccccc1NC(=O)CN1CCC(NC(=O)c2ccccc2C)CC1 the Potency was inconclusive: 25.9 µM [inhibitor, partial curve]. For CCOc1ccc(S(=O)(=O)N2CCCCC2)cc1NC(=O)CN1CCCC1c1cccs1 (centres undefined), the Potency was inconclusive: 6.51 µM [inhibitor, single point].
